Source: PubChem BioAssay AID504764 (Drosophila RNAi Screening Center, 2011)
Purpose: 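Genome-wide screen for regulators of Notch-driven gene expression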 (primary screen). Cells: Drosophila Kc167 cells. Reagent: long dsRNA against Drosophila genes. Time to read-out: about 5 days (4 days dsRNA, then 24 h after transfection). Challenge: transfection of constitutively active membrane-tethered Notch lacking the extracellular domain, read 24 h later. Measurement: 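Firefly luciferase from an E(spl)m3 reporter with active Notch, plus control-promoter and uninduced reporter wells for normalisation; unnormalised counts, duplicate wells a and b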. Scale: induced reporter light, run 1, well a and induced reporter light, run 1, well b: higher = more light from the Notch target reporter with active Notch; control promoter light, run 1, well a and control promoter light, run 1, well b: higher = more light from the viral control promoter (cell number, transfection, viability); uninduced reporter light, run 1, well a: higher = more light from the Notch target reporter without active Notch. Rule for the call: 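Hit if the duplicate-averaged log2 ratio of induced to control-promoter light gives a plate-wise z beyond ±2, or induced to uninduced beyond ±1.8; weak-control or discordant-duplicate wells dropped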. Meaning of the calls: active = modifier hit (raised or lowered Notch signal); inactive = not a hit.
The deposit covers about 22,000 reagents; this is an unselected part of those that have a named target and a result. Of all reagents, 403 (1.9%) got an active call. 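Unnormalised raw counts per well; ratio z-scores behind the hit calls and whether each hit raises or lowers signal are not deposited.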 Entries without a mark were called inactive. The numbers tell different reagents against one gene apart. Names joined by + are all predicted targets of the reagent. The record does not give: the amount of reagent.

CG13814 (retired record) | induced reporter light, run 1, well a = 67520; induced reporter light, run 1, well b = 49320; control promoter light, run 1, well a = 44505; control promoter light, run 1, well b = 38125; uninduced reporter light, run 1, well a = 3790
elm (ethanol sensitive with low memory) | induced reporter light, run 1, well a = 1.24e5; induced reporter light, run 1, well b = 1.15e5; control promoter light, run 1, well a = 83910; control promoter light, run 1, well b = 76945; uninduced reporter light, run 1, well a = 7805
Hers (Histone gene-specific Epigenetic Repressor in late S phase) #1 | induced reporter light, run 1, well a = 1.47e5; induced reporter light, run 1, well b = 1.29e5; control promoter light, run 1, well a = 90445; control promoter light, run 1, well b = 50565; uninduced reporter light, run 1, well a = 9845
Hers (Histone gene-specific Epigenetic Repressor in late S phase) #2 | induced reporter light, run 1, well a = 73935; induced reporter light, run 1, well b = 96005; control promoter light, run 1, well a = 87295; control promoter light, run 1, well b = 1.07e5; uninduced reporter light, run 1, well a = 8360
CG2712 | induced reporter light, run 1, well a = 2.01e5; induced reporter light, run 1, well b = 1.87e5; control promoter light, run 1, well a = 2.22e5; control promoter light, run 1, well b = 2.15e5; uninduced reporter light, run 1, well a = 12090
TkR99D (Tachykinin-like receptor at 99D) | induced reporter light, run 1, well a = 1.41e5; induced reporter light, run 1, well b = 1.16e5; control promoter light, run 1, well a = 1.75e5; control promoter light, run 1, well b = 1.53e5; uninduced reporter light, run 1, well a = 10985
insv (insensitive) | induced reporter light, run 1, well a = 1.25e5; induced reporter light, run 1, well b = 1.08e5; control promoter light, run 1, well a = 1.22e5; control promoter light, run 1, well b = 89215; uninduced reporter light, run 1, well a = 8865
CG7378 | induced reporter light, run 1, well a = 75965; induced reporter light, run 1, well b = 1.01e5; control promoter light, run 1, well a = 98715; control promoter light, run 1, well b = 1.24e5; uninduced reporter light, run 1, well a = 11105
CG3748 | induced reporter light, run 1, well a = 1.52e5; induced reporter light, run 1, well b = 2.24e5; control promoter light, run 1, well a = 1.21e5; control promoter light, run 1, well b = 1.46e5; uninduced reporter light, run 1, well a = 24655
His2B:CG33870 + His2B:CG33868 + His2B:CG33882 + 21 more | induced reporter light, run 1, well a = 27330; induced reporter light, run 1, well b = 22440; control promoter light, run 1, well a = 17620; control promoter light, run 1, well b = 16550; uninduced reporter light, run 1, well a = 1565
CG5541 | induced reporter light, run 1, well a = 1.54e5; induced reporter light, run 1, well b = 1.58e5; control promoter light, run 1, well a = 2.09e5; control promoter light, run 1, well b = 1.73e5; uninduced reporter light, run 1, well a = 11275
Jra (Jun-related antigen) | induced reporter light, run 1, well a = 1.79e5; induced reporter light, run 1, well b = 2.49e5; control promoter light, run 1, well a = 1.94e5; control promoter light, run 1, well b = 2.00e5; uninduced reporter light, run 1, well a = 18405
CG7222 | induced reporter light, run 1, well a = 1.55e5; induced reporter light, run 1, well b = 1.40e5; control promoter light, run 1, well a = 1.33e5; control promoter light, run 1, well b = 1.45e5; uninduced reporter light, run 1, well a = 11665
IleRS-m (Isoleucyl-tRNA synthetase, mitochondrial) | induced reporter light, run 1, well a = 77850; induced reporter light, run 1, well b = 1.00e5; control promoter light, run 1, well a = 1.09e5; control promoter light, run 1, well b = 1.09e5; uninduced reporter light, run 1, well a = 4778
LysB (Lysozyme B) | induced reporter light, run 1, well a = 99730; induced reporter light, run 1, well b = 1.12e5; control promoter light, run 1, well a = 2.01e5; control promoter light, run 1, well b = 1.26e5; uninduced reporter light, run 1, well a = 5180
Taz (Tafazzin) | induced reporter light, run 1, well a = 1.24e5; induced reporter light, run 1, well b = 1.37e5; control promoter light, run 1, well a = 1.52e5; control promoter light, run 1, well b = 1.37e5; uninduced reporter light, run 1, well a = 9755
Glg1 (Golgi complex-localized glycoprotein 1) #1 | induced reporter light, run 1, well a = 1.27e5; induced reporter light, run 1, well b = 1.16e5; control promoter light, run 1, well a = 79790; control promoter light, run 1, well b = 1.03e5; uninduced reporter light, run 1, well a = 9270
Glg1 (Golgi complex-localized glycoprotein 1) #2 | induced reporter light, run 1, well a = 28195; induced reporter light, run 1, well b = 39850; control promoter light, run 1, well a = 44805; control promoter light, run 1, well b = 41500; uninduced reporter light, run 1, well a = 2400
Glg1 (Golgi complex-localized glycoprotein 1) #3 | induced reporter light, run 1, well a = 1.18e5; induced reporter light, run 1, well b = 1.15e5; control promoter light, run 1, well a = 98670; control promoter light, run 1, well b = 91620; uninduced reporter light, run 1, well a = 7395

As entered above:
CG13814 (retired record), uninduced reporter light, run 1, well a → 3790
LysB (Lysozyme B), induced reporter light, run 1, well a = 99730
Glg1 (Golgi complex-localized glycoprotein 1) #3, induced reporter light, run 1, well b: 1.15e5
